# Measurements from paper PMC11300717.
# Chains of the proteins cited; added tags and fusions are not shown.
# UniProt P19474: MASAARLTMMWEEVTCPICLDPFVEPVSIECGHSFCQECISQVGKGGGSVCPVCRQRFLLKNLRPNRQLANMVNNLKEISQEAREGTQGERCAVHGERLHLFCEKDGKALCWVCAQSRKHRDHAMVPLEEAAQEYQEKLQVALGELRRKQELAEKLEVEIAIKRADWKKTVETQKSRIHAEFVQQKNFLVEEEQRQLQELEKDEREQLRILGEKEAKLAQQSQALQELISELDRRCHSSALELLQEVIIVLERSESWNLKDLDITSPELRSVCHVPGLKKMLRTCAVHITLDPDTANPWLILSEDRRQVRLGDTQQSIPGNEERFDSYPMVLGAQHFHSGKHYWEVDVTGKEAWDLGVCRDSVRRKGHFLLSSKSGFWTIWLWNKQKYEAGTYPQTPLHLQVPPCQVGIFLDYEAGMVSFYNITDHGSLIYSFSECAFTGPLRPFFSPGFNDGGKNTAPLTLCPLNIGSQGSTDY
# UniProt P14618: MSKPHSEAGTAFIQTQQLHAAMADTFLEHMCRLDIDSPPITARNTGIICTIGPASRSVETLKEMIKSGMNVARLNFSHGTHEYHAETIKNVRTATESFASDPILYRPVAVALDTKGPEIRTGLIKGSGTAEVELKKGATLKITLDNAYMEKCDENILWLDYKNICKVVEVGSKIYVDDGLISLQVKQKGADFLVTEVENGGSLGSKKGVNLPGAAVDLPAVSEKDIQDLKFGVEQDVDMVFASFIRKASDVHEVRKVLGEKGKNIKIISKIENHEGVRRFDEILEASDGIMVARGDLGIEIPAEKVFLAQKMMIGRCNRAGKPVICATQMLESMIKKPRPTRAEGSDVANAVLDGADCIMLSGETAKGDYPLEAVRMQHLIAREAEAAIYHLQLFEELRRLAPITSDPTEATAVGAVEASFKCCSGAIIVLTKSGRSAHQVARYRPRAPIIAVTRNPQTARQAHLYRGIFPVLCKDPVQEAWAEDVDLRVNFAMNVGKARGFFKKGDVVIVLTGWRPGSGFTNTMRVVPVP
# These are yes or no findings as the source states them, for the method shown. Binding seen in cells or lysates may run through a third protein. Here binding means that the protein was enriched with, or labelled near, the bait; the list need not be complete.
# Target: NCAPH (non-SMC condensin I complex subunit H) (human (endogenous in HeLa)) (UniProt Q15003)
# Experiment: affinity purification with mass spectrometry; HeLa total protein precipitated on agarose beads with anti-NCAPH antibody or IgG; SDS-PAGE, silver staining; the 50-70 kDa region that differed most was excised and analysed by mass spectrometry
row,binding,Substance
1,binds,Tripartite motif-containing protein 21 (TRIM21) (from UniProt P19474 1-475)
2,binds,GPI (from UniProt P06744 1-558)
3,binds,PKM2 (from UniProt P14618 1-531)
